This is an account of results in article PMC10176748.

The chains behind the UniProt entries cited, without tags or fusion partners. Residues count along the entry.
UniProt Q64339, residues 1-155: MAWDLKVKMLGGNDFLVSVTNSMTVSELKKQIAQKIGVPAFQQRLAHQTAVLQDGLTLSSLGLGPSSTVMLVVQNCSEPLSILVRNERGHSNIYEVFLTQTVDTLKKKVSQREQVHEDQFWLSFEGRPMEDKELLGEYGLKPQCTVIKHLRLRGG
UniProt E9Q555: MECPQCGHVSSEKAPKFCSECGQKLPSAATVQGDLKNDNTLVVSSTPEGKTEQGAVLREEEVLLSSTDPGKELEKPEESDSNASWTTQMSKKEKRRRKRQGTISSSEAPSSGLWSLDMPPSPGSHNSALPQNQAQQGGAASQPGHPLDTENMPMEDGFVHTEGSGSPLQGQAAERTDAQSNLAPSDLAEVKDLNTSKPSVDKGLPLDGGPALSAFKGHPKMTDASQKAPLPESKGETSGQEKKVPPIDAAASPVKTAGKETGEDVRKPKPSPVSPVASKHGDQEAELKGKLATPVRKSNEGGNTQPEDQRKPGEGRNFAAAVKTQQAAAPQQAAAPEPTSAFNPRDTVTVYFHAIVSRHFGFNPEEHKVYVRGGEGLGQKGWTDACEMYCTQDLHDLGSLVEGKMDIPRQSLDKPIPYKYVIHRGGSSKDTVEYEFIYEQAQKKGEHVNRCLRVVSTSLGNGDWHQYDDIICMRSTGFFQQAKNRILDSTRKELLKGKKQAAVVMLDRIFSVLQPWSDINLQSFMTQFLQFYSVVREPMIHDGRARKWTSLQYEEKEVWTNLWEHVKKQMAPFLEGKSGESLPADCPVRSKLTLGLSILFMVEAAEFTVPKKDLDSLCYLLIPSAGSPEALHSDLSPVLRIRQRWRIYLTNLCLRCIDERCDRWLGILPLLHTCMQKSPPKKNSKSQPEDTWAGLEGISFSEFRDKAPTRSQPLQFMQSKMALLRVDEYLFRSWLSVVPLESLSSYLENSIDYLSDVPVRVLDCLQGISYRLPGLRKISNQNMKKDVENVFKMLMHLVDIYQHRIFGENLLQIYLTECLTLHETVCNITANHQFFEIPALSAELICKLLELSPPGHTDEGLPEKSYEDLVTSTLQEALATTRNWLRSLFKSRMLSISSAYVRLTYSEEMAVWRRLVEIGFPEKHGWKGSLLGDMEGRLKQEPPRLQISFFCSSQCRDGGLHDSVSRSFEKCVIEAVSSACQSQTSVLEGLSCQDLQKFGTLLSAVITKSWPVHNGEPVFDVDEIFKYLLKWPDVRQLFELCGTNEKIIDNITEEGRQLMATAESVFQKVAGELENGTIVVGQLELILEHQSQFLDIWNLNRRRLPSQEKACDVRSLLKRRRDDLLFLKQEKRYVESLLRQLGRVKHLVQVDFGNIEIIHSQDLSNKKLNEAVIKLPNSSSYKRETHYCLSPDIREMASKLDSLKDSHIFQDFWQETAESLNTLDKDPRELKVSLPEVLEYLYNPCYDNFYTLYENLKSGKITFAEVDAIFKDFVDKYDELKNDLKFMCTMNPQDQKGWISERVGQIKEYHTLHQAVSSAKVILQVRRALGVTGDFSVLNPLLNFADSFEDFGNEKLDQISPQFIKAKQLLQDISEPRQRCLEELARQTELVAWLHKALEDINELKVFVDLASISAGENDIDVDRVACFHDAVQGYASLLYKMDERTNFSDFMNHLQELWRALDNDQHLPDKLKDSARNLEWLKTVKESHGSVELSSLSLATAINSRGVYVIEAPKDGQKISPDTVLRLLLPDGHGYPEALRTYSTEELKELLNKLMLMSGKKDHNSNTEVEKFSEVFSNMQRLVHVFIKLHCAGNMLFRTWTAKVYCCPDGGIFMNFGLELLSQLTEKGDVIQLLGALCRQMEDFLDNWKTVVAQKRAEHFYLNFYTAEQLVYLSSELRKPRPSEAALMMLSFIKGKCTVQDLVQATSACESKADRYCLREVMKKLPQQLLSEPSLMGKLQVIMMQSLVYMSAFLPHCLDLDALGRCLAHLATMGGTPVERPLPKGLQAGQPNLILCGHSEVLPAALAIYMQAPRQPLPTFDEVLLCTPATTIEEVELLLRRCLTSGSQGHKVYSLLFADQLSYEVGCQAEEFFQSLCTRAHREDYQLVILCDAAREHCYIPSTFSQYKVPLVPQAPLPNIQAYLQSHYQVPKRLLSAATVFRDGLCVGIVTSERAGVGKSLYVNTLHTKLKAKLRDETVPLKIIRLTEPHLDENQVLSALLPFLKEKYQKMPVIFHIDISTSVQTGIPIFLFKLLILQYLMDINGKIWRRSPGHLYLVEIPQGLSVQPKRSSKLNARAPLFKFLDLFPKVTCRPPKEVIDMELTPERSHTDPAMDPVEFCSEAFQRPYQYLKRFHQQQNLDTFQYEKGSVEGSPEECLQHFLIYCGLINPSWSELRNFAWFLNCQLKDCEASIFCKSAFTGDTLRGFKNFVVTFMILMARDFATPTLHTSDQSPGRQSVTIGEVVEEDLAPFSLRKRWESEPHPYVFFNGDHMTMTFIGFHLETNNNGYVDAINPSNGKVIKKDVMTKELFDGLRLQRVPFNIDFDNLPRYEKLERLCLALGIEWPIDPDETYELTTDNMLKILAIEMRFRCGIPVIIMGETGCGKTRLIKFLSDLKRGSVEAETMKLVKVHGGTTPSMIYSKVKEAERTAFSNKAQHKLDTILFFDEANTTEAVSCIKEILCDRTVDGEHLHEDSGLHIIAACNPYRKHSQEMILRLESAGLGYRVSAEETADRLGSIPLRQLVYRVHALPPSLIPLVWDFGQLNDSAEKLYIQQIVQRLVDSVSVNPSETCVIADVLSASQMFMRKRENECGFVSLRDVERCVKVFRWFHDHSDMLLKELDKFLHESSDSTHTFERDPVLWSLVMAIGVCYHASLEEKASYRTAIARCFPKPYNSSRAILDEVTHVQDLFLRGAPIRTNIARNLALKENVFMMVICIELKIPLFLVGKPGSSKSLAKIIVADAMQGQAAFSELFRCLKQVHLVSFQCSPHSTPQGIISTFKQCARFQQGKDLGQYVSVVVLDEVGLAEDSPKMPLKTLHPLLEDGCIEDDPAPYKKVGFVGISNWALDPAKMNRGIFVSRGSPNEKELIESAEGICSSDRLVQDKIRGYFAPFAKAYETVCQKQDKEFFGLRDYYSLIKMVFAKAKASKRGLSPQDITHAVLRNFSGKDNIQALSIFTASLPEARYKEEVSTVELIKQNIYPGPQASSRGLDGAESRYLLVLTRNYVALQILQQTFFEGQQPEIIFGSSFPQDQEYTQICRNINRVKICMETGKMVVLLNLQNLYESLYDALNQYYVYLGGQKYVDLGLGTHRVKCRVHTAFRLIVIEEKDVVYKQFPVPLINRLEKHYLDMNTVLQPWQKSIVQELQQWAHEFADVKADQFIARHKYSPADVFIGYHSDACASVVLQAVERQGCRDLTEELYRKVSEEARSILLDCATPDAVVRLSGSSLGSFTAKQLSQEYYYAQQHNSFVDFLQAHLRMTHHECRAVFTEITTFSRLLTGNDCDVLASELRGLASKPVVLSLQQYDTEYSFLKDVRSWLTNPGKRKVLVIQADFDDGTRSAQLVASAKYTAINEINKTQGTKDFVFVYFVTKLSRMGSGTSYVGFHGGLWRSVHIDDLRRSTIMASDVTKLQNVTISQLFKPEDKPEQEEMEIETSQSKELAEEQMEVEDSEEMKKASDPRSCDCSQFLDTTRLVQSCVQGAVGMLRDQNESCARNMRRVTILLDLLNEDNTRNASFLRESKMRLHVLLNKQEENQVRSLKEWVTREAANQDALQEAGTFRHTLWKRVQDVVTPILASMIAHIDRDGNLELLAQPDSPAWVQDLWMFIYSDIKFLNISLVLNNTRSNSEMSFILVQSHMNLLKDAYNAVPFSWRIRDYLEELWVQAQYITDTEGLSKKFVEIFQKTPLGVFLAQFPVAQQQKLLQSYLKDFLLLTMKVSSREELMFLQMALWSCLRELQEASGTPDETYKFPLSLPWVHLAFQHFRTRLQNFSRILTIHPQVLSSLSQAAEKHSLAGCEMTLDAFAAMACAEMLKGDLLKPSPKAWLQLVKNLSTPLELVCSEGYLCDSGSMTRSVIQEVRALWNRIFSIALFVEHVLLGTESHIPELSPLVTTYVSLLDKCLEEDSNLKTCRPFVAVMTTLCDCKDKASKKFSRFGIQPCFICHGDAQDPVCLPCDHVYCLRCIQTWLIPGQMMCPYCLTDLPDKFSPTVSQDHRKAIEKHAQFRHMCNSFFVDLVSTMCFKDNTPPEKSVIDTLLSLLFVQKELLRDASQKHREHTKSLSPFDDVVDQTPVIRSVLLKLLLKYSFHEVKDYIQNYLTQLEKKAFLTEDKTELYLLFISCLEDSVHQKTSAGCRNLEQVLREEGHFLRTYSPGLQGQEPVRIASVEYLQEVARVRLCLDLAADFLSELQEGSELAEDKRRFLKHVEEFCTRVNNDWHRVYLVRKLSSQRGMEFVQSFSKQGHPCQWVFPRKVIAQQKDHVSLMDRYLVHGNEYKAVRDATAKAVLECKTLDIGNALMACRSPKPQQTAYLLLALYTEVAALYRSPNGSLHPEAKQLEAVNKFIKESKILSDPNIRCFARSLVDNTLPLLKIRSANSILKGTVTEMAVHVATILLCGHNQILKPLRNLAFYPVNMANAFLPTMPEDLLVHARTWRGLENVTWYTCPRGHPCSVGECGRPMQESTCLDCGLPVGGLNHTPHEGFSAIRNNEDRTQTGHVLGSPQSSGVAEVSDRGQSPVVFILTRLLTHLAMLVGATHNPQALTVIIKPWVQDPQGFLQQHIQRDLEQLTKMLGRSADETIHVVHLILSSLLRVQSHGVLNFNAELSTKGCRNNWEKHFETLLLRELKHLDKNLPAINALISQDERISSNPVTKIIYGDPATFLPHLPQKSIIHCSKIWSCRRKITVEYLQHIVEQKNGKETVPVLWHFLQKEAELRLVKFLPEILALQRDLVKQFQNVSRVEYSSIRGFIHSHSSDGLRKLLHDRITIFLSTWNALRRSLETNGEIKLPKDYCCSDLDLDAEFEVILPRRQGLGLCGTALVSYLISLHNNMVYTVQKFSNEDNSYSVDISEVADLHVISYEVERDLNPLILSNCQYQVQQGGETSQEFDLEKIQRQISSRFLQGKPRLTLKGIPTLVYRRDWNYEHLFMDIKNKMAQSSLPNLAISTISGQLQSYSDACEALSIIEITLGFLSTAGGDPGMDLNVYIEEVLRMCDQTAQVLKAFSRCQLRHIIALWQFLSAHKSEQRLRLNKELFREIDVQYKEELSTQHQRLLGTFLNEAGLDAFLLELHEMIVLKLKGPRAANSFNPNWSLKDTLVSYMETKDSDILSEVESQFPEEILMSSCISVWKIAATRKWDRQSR

No constants are given. Whether binding was seen depends on the method and setting. Binding seen in cells or lysates may run through a third protein. Some results given as binding are weak or reduced against the parent protein; the word gives no strength.

The target in the assay is FLAG-ISG15 (interferon-stimulated gene 15) (mouse) (UniProt Q64339). Briefly: co-IP; mGCs transfected with FLAG-ISG15; lysate immunoprecipitated with anti-FLAG beads overnight at 4 °C, PBST washes; candidates detected by immunoblot. On the technique in general: A western blot detects proteins with antibodies after separation by electrophoresis.

On to “ring finger protein 213 (RNF213) (from UniProt E9Q555 1-5148)”, for which the binding result was “binds”.

B1: protease serine 23 (PRSS23) (protein, UniProt Q9D6X6 23-382)
chain: YTVPWKPTWPAYRLPVVLPQSTLNLAKADFDAKAKLEVSSSCGPQCHKGTPLPTYEEAKQYLSYETLYANGSRTETRVGIYILSNGEGRARGRDSEATGRSRRKRQIYGYDGRFSIFGKDFLLNYPFSTSVKLSTGCTGTLVAEKHVLTAAHCIHDGKTYVKGTQKLRVGFLKPKYKDGAGGDNSSSSAMPDKMKFQWIRVKRTHVPKGWIKGNANDIGMDYDYALLELKKPHKRQFMKIGVSPPAKQLPGGRIHFSGYDNDRPGNLVYRFCDVKDETYDLLYQQCDAQPGASGSGVYVRMWKRPQQKWERKIIGIFSGHQWVDMNGSPQDFNVAVRITPLKYAQICYWIKGNYLDCREG
With B1, the binding result was “binds”.
